Test [1] concerns the target HNRNPC (human (endogenous in HEK293T, HepG2, A431)) (UniProt P07910). Kind of test: co-IP.
The target is the same in test [2]. Kind of test: sequential immunoprecipitation irCLIP.
Test [3] deals with T1, HNRNPM (human (endogenous in HEK293T)) (UniProt P52272).
T1 sequence: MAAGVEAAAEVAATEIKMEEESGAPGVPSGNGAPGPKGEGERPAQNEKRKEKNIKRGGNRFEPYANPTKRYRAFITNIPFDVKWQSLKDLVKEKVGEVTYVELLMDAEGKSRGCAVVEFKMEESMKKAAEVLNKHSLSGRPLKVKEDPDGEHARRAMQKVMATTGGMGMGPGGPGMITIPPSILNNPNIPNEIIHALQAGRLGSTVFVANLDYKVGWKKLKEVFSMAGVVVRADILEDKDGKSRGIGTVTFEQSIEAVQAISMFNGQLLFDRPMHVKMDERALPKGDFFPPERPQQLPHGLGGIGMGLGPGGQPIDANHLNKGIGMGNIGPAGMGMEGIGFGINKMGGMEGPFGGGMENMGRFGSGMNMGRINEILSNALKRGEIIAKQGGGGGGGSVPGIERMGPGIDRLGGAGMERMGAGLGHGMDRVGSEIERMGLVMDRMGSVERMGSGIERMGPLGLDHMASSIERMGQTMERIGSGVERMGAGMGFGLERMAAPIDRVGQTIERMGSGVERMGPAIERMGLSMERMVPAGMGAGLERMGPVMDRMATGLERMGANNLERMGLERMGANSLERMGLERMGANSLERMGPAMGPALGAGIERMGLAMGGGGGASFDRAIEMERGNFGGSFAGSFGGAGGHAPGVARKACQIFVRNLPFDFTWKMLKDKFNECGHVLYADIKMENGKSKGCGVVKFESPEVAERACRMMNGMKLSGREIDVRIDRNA
Kind of test: co-IP.

Chains of the proteins cited; added tags and fusions are not shown.
UniProt P07910: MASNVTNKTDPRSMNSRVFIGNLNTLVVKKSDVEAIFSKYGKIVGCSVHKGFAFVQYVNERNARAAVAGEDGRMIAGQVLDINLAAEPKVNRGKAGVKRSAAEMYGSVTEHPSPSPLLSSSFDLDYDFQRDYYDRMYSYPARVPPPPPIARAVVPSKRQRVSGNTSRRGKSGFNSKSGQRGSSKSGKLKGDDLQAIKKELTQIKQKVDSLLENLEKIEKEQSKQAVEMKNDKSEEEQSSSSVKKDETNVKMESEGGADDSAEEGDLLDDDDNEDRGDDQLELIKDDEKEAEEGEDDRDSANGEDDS

No constants are given. Whether binding was seen depends on the method and setting. For some of these results: In cells and extracts the contact can be indirect. Some results given as binding are weak or reduced against the parent protein; the word gives no strength.

B1: HNRNPM (protein, UniProt P52272 1-730)
chain: T1 sequence
Take B1: the binding result in test [1] and in test [2] was “binds” throughout.

B2: ILF3 (protein, UniProt Q12906 1-894)
chain: MRPMRIFVNDDRHVMAKHSSVYPTQEELEAVQNMVSHTERALKAVSDWIDEQEKGSSEQAESDNMDVPPEDDSKEGAGEQKTEHMTRTLRGVMRVGLVAKGLLLKGDLDLELVLLCKEKPTTALLDKVADNLAIQLAAVTEDKYEILQSVDDAAIVIKNTKEPPLSLTIHLTSPVVREEMEKVLAGETLSVNDPPDVLDRQKCLAALASLRHAKWFQARANGLKSCVIVIRVLRDLCTRVPTWGPLRGWPLELLCEKSIGTANRPMGAGEALRRVLECLASGIVMPDGSGIYDPCEKEATDAIGHLDRQQREDITQSAQHALRLAAFGQLHKVLGMDPLPSKMPKKPKNENPVDYTVQIPPSTTYAITPMKRPMEEDGEEKSPSKKKKKIQKKEEKAEPPQAMNALMRLNQLKPGLQYKLVSQTGPVHAPIFTMSVEVDGNSFEASGPSKKTAKLHVAVKVLQDMGLPTGAEGRDSSKGEDSAEETEAKPAVVAPAPVVEAVSTPSAAFPSDATAEQGPILTKHGKNPVMELNEKRRGLKYELISETGGSHDKRFVMEVEVDGQKFQGAGSNKKVAKAYAALAALEKLFPDTPLALDANKKKRAPVPVRGGPKFAAKPHNPGFGMGGPMHNEVPPPPNLRGRGRGGSIRGRGRGRGFGGANHGGYMNAGAGYGSYGYGGNSATAGYSQFYSNGGHSGNASGGGGGGGGGSSGYGSYYQGDNYNSPVPPKHAGKKQPHGGQQKPSYGSGYQSHQGQQQSYNQSPYSNYGPPQGKQKGYNHGQGSYSYSNSYNSPGGGGGSDYNYESKFNYSGSGGRSGGNSYGSGGASYNPGSHGGYGGGSGGGSSYQGKQGGYSQSNYNSPGSGQNYSGPPSSYQSSQGGYGRNADHSMNYQYR
B2: the binding entry in test [3] and in test [1] was “binds” in each case.
